Values from PubChem BioAssay AID504786 (Drosophila RNAi Screening Center, 2011)
Assay: 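Knock-downs reducing HIF reporter induction by the iron chelator DFO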 (primary screen). Cell system: Drosophila S2 cells with a stable HIF luciferase reporter. Knock-down reagent: long dsRNA against Drosophila genes, about 0.2 µg dsRNA per well of a 384-well plate. Duration: three days of knock-down, then 20 h of DFO before reading. Conditions: desferrioxamine (DFO) at 100 µM, an iron chelator that mimics hypoxia, for 20 h. Detection: 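HIF reporter luminescence in cells given 100 µM DFO for 20 h, using the mouse ldh-a hypoxia-response element, scored as per-plate z-scores; higher means greater loss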. Scale: z-score: higher = stronger loss of HIF reporter signal.
The deposit covers about 21,000 reagents; shown is an unselected part of those with a known target gene and a result. 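Primary screen; positive scores mean lost reporter signal, so the sign may be inverted from the usual convention.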 Names joined by + are all predicted targets of the reagent. Not all columns of the deposit are shown.

z-score, replicate 1, by gene knocked down and reagent
Snrk: SID104186984 -0.2
CG5404: SID104195585 -0.2
CG31534 (retired record): SID104191933 -0.2; SID104192081 -0.2
trbd: SID104196286 -0.3
mv: SID104188000 -0.3; SID104188362 0
tara: SID104196868 -0.4
CG15262: SID104181767 -0.2
Prx6c: SID104185872 -0.1
sgg: SID104197020 -0.3; SID104197514 -0.2; SID104198624 -0.2
CG42726 + CG42727: SID104194277 -0.4
CG17404: SID104195026 -0.4
RpL7-like + CG34164: SID104182628 -0.3; SID104182629 -0.4
CG43328: SID104185432 0.2
mi: SID104184290 0.7
CG15296: SID104197775 -0.2
twit: SID104183002 -0.3
Nepl13: SID104195424 -0.2
grass: SID104195703 -0.2
Hsp60B: SID104180334 -0.3
Ald1: SID104193901 -0.5
Dhps: SID104190740 -0.4
CG1208: SID104191982 -0.4
CG31606: SID104180804 -0.4
ear: SID104195467 0.3
Zwilch: SID104195168 -0.2
RpL32: SID104196627 5.2
CG15043: SID104199411 -0.2
stumps: SID104192837 -0.6; SID104195124 5.3; SID104196865 -0.2
RpL24-like: SID104195903 0.5
Spn43Ad: SID104186562 -0.3
CG3609: SID104180412 -0.1
CG11052: SID104194080 0
CG7879: SID104188392 -0.2
Tep1: SID104183242 -0.3
CG7991: SID104188401 -0.3
mora: SID104196386 -0.4
CG31675: SID104181617 -0.7
su(Hw): SID104196866 -0.4
CG15199: SID104199438 -0.3
CG34454: SID104187656 -0.2
mgr: SID104195891 -0.3
TTLL6A: SID104186410 -0.4
Polr1D + DCTN6-p27: SID104181886 0.7
CG17283: SID104195011 -0.2
Ir52b: SID104186055 -0.1
CG31268: SID104192995 -0.1
Dcr-2: SID104186784 -0.3
CNBP: SID104183908 -0.2; SID104184211 -0.3
Lcp65Af: SID104191005 -0.3
Sugb: SID104190607 -0.1
CG14540: SID104194676 -0.6
grp + CG31782 (retired record): SID104183333 -0.3
CG34326 (retired record): SID104198957 -0.2
Mcm6: SID104198472 -0.3
CG3515: SID104180401 -0.4
mod(mdg4): SID104193266 0.4; SID104193267 0.3; SID104193270 0; SID104193271 -0.1; SID104194834 0.1; SID104196792 0.2
Nelf-A: SID104195695 -0.2
trn: SID104191199 -0.2
RpS5b: SID104195965 0
Gr68a: SID104190595 -0.3
Tdc2: SID104184791 0.1
cert: SID104189466 -0.2
ND-B16.6: SID104198098 -0.2
plx: SID104192052 -0.2; SID104192177 -0.3
CG18368: SID104186523 -0.4
IFT54: SID104195261 -0.4
CG15395: SID104180201 0.3
Hsp70Bc: SID104195845 -0.1
ecd: SID104188366 -0.3
Dnaaf4: SID104182197 -0.4
GstE9: SID104186471 -0.2
CAP: SID104185007 1.1; SID104186535 -0.2; SID104186536 -0.2; SID104186537 -0.3; SID104186638 -0.3
CG34227: SID104186580 -0.1; SID104186826 -0.2
Grx3: SID104182758 -0.4
yki: SID104184229 2.1
Cpr49Af: SID104186994 -0.3
Vha100-5: SID104181967 -0.2
Obp50d: SID104185275 -0.1
CG8441: SID104186972 -0.2
CG32568: SID104199705 -0.4
Phb2: SID104186304 1
mRpL1: SID104196043 1
Ufl1: SID104192319 -0.3
Eig71Ec: SID104190942 -0.3
CG30419: SID104184000 -0.1; SID104184001 -0.1
IFT43: SID104182684 -0.3

10 of these entries in another layout:
gene knocked down | PubChem SID | z-score, replicate 1
IFT54 | SID104195261 | -0.4
CG15395 | SID104180201 | 0.3
Hsp70Bc | SID104195845 | -0.1
ecd | SID104188366 | -0.3
Dnaaf4 | SID104182197 | -0.4
GstE9 | SID104186471 | -0.2
CAP | SID104185007 | 1.1
CAP | SID104186535 | -0.2
CAP | SID104186536 | -0.2
CAP | SID104186537 | -0.3
